Our source for the percent viability values is the supplement of paper PMC8256030.

Molecules are shown by their SMILES. Several values for one entry are separate records, joined by “and”; a condition that tells them apart may be missing. Equal entries are not always repeated. Structures can show the parent of a compound that is named as a salt. The list shows a part of the results. Repeats in this data set agree poorly, so a single value says little.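 HEK293T cells were given each compound shortly before transfection with a reporter in which red mCherry is followed by the SARS-CoV-2 frameshift element and then GFP in the −1 frame, so GFP appears only after frameshifting.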

The test system of the experiment is HEK293T. The experiment can be described thus: percent viability (nuclei count) relative to control; higher = more viable cells. As to conditions: 10 µM; 24 h.
Take `CCC1(C)CC(=O)NC1=O` (stereo not given) [ethosuximide]: the percent viability was determined as 405%.
Take `CCN[C@@H]1C[C@H](N)[C@@H](O[C@H]2OC(CN)=CC[C@H]2N)[C@H](O)[C@H]1O[C@H]1OC[C@](C)(O)[C@H](NC)[C@H]1O` [netilmicin]: the percent viability came to 108%.
Consider `CCCc1ncc(C[n+]2ccccc2C)c(N)n1` [amprolium], for which the percent viability was determined as 234%.
Then `NC(N)=Nc1nc(CSCC/C(N)=N/S(N)(=O)=O)cs1` [famotidine], with 37.3% and 61.6%.
Next, `CC(=O)OCC(=O)[C@@]1(O)CC[C@H]2[C@@H]3CCC4=CC(=O)C=C[C@]4(C)[C@@]3(F)[C@@H](O)C[C@@]21C`: 65%; `CN1C(C)(C)CCCC1(C)C`: 213%; `COc1nc(N)nc2c1ncn2[C@@H]1O[C@H](CO)[C@@H](O)[C@@H]1O` [Arranon]: 93.6%.
For the compound `CC(=O)CC/C=C(\C)CC/C=C(\C)CC/C=C(\C)CCC=C(C)C` [teprenone], the percent viability was 223%.
For the compound `CC(=O)OCC[N+](C)(C)C` [acetylcholine chloride], the percent viability was 302% and 176%.
With `CCC[S+]([O-])c1ccc2[nH]c(NC(=O)OC)nc2c1` (stereo not given) [albendazole oxide], the percent viability stood at 201%.
`CN(C)CC/C=C1\c2ccccc2CSc2ccccc21` [Dosulepin]: the percent viability was 291%.
With `CC[N+](C)(C)Cc1ccccc1Br` [Bretylol], the percent viability came to 257%.
As to `COc1cc(C=CC(=O)N2CCCCCCC2)cc(OC)c1OC`, the percent viability is 246%.
Then `CO[C@@H]1[C@@H](OC)[C@H](C)[C@@](O)(CC(=O)O)O[C@H]1[C@H](C)[C@H]1O[C@@]2(CC[C@@](C)([C@H]3CC[C@@](C)([C@@H]4O[C@@H]([C@H]5O[C@](C)(O)[C@H](C)C[C@@H]5C)C[C@@H]4O[C@@H]4C[C@H](OC)[C@@H](OC)[C@H](C)O4)O3)O2)C[C@H](O)[C@H]1C` [maduramicin], with 9.44%.
Then `COc1cc2c(cc1OC)-c1c/c(=N\c3c(C)cc(C)cc3C)n(C)c(=O)n1CC2` [Trequinsin·HCl], with 238%.
For `CCC[C@H](NC(=O)[C@@H]1[C@H]2CCC[C@H]2CN1C(=O)[C@@H](NC(=O)[C@@H](NC(=O)c1cnccn1)C1CCCCC1)C(C)(C)C)C(=O)C(=O)NC1CC1` [Incivik], the percent viability was determined as 94.1%.
As for `Cc1c(NC(=O)c2cccnc2)c(=O)n(-c2ccccc2)n1C` [nifenazone], the percent viability stood at 365%.
Next, `N=C(N)NCc1cccc(I)c1` [Iobenguane]: 274%.
Next, `NC(N)=Nc1nc(CSCCN/C=N/S(=O)(=O)c2ccc(Br)cc2)cs1` [ebrotidine]: 103%; `C#C[C@]1(OC(C)=O)CC[C@H]2[C@@H]3CCC4=C[C@@H](OC(C)=O)CC[C@@H]4[C@H]3CC[C@@]21C` [Etynodiol]: 60.9%; `CCCN(CCC)S(=O)(=O)c1ccc(C)cc1` [ditolamide]: 159%.
As for `N=C(N)c1ccc(OCCCOc2ccc(C(=N)N)cc2Br)c(Br)c1` [dibrompropamidine], the percent viability was 172%.
Next, `CO[C@@H]1[C@@H](OC(N)=O)[C@@H](O)[C@H](Oc2ccc3c(O)c(NC(=O)c4ccc(O)c(CC=C(C)C)c4)c(=O)oc3c2C)OC1(C)C`: 303%; `CCCN(CCC)C(=O)C(Cc1ccc(OCCN(CC)CC)cc1)NC(=O)c1ccccc1` (stereo not given) [tiropramide]: 185%; `CC(C)c1ccc2oc3nc(N)c(C(=O)O)cc3c(=O)c2c1` [amlexanox]: 302%.
In the case of `O=C([O-])[C@H](O)[C@@H](O)[C@H](O)[C@H](O)CO.O=C([O-])[C@H](O)[C@@H](O)[C@H](O)[C@H](O)CO.[Ca+2]`, the percent viability worked out at 197%.
Consider `CCC1Nc2cc(Cl)c(S(N)(=O)=O)cc2S(=O)(=O)N1` (stereo not given) [ethiazide], for which the percent viability stood at 194%.
Then `CCCCCCCCCCCC(=O)OC[C@@H](O)[C@H]1OC[C@H](O)[C@H]1O` [sorbitan laurate], with 176%; and `CN1[C@@H]2CC[C@H]1C[C@@H](OC(=O)c1c[nH]c3ccccc13)C2` [Tropisetron], with 185%; and `CN(C)CC/C=C1/c2ccccc2COc2ccc(CC(=O)O)cc21` [Patanol], with 76.7%.
In the case of `CC(=O)NS(=O)(=O)c1ccc(N)cc1` [sulfacetamide], the percent viability stood at 140%.
Next, `C=CC1=C(C(=O)O)N2C(=O)[C@@H](NC(=O)/C(=N\O)c3csc(N)n3)[C@H]2SC1` [Omnicef]: 277%.
On to `CN(C)c1ccc(O)c2c1C[C@H]1C[C@H]3[C@H](N(C)C)C(=O)C(C(N)=O)=C(O)[C@@]3(O)C(=O)C1=C2O` [Minocycline], for which the percent viability is 199%.
Next, `N[C@H]1C(O)O[C@H](CO)[C@@H](O)[C@@H]1O` (stereo not given in full): 173% and 193%; `c1ccc2c(c1)OCC(CN1CCCCC1)O2` (stereo not given) [piperoxan]: 130%; `C[C@@H]1C/C=C/C=C/C=C/C=C/[C@H](O[C@@H]2O[C@H](C)[C@@H](O)[C@H](N)[C@@H]2O)C[C@@H]2O[C@](O)(C[C@@H](O)C[C@H]3O[C@@H]3/C=C/C(=O)O1)C[C@H](O)[C@H]2C(=O)O` [Natamycin]: 65.4%.
In the case of `FC(F)(Cl)C(F)(F)Cl` [cryofluorane], the percent viability is 167%.
As to `CCCCC[C@H](O)/C=C/[C@H]1[C@H](O)CC(=O)[C@@H]1CCCCCCC(=O)O` [alprostadil], the percent viability amounted to 207%.
Regarding `CC/N=C(\NCC)NCCCC[C@H](NC(=O)[C@H](CC(C)C)NC(=O)[C@@H](CCCCN/C(=N/CC)NCC)NC(=O)[C@H](Cc1ccc(O)cc1)NC(=O)[C@H](CO)NC(=O)[C@@H](Cc1cccnc1)NC(=O)[C@@H](Cc1ccc(Cl)cc1)NC(=O)[C@@H](Cc1ccc2ccccc2c1)NC(C)=O)C(=O)N1CCC[C@H]1C(=O)N[C@H](C)C(N)=O` [Ganirelix], the percent viability stood at 18.4%.
On to `O=C1NC(=O)C(c2ccccc2)(c2ccccc2)N1` [phenytoin], for which the percent viability was 119% and 206%.
